# Data from the supplement of paper PMC8728848.
# Some of the results follow.
# How the values were obtained:
# Test in all cases: glycan array binding signal (z-score within array); higher = stronger binding
# Conditions in all cases: glycan notation: IUPAC condensed, linker removed
# [1] = biological target: Gal(b1-3)GlcNAc(b1-3)Gal(b1-4)GlcNAc(b1-2)Man(a1-3)[Gal(b1-3)GlcNAc(b1-3)Gal(b1-4)GlcNAc(b1-2)Man(a1-6)]Man(b1-4)GlcNAc(b1-4)GlcNAc
# Procedure, shortened: (§1)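 Columns mapping to the same glycan were averaged after glycan names were converted to IUPAC-condensed notation. The data come from 3228 arrays in the Consortium for Functional Glycomics database, limited to those with an available protein sequence. Binding is reported as a within-array Z-score averaged across arrays of one protein sequence and across linkers.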
# [2] = biological target: Gal(b1-3)GlcNAc(b1-3)Gal(b1-4)GlcNAc(b1-2)[Gal(b1-3)GlcNAc(b1-3)Gal(b1-4)GlcNAc(b1-6)]Man(a1-6)[Gal(b1-3)GlcNAc(b1-3)Gal(b1-4)GlcNAc(b1-2)Man(a1-3)]Man(b1-4)GlcNAc(b1-4)[Fuc(a1-6)]GlcNAc
# Procedure, shortened: as §1
# [3] = biological target: Gal(b1-3)GlcNAc(b1-3)Gal(b1-4)GlcNAc(b1-3)Gal(b1-4)GlcNAc(b1-2)[Gal(b1-3)GlcNAc(b1-3)Gal(b1-4)GlcNAc(b1-3)Gal(b1-4)GlcNAc(b1-6)]Man(a1-6)[Gal(b1-3)GlcNAc(b1-3)Gal(b1-4)GlcNAc(b1-3)Gal(b1-4)GlcNAc(b1-2)Man(a1-3)]Man(b1-4)GlcNAc(b1-4)[Fuc(a1-6)]GlcNAc
# Procedure, shortened: as §1
# [4] = biological target: Gal(b1-3)GlcNAc(b1-3)Gal(b1-4)GlcNAc(b1-6)[Gal(b1-3)GlcNAc(b1-3)]Gal(b1-4)Glc
# Procedure, shortened: as §1
# [5] = biological target: Gal(b1-3)GlcNAc(b1-3)Gal(b1-4)[Fuc(a1-3)]GlcNAc
# Procedure, shortened: as §1
# [6] = biological target: Gal(b1-3)GlcNAc(b1-3)Gal(b1-4)[Fuc(a1-3)]GlcNAc(b1-6)[Gal(b1-3)GlcNAc(b1-3)]Gal(b1-4)Glc
# Procedure, shortened: as §1
# [7] = biological target: Gal(b1-3)GlcNAc(b1-3)GalNAc
# Procedure, shortened: as §1
# [8] = biological target: Gal(b1-3)GlcNAc(b1-6)Gal(b1-4)GlcNAc
# Procedure, shortened: as §1
# [9] = biological target: Gal(b1-3)GlcNAc(b1-6)GalNAc
# Procedure, shortened: as §1
# [10] = biological target: Gal(b1-3)GlcNAc(b1-6)[Gal(b1-3)]GalNAc
# Procedure, shortened: as §1
# [11] = biological target: Gal(b1-3)GlcNAc6S
# Procedure, shortened: as §1
# [12] = biological target: Gal(b1-3)[Fuc(a1-4)]GlcNAc
# Procedure, shortened: as §1
# [13] = biological target: Gal(b1-3)[Fuc(a1-4)]GlcNAc(b1-2)Man
# Procedure, shortened: as §1
# [14] = biological target: Gal(b1-3)[Fuc(a1-4)]GlcNAc(b1-2)Man(a1-3)[Gal(b1-3)[Fuc(a1-4)]GlcNAc(b1-2)Man(a1-6)]Man(b1-4)GlcNAc(b1-4)GlcNAc
# Procedure, shortened: as §1
# [15] = biological target: Gal(b1-3)[Fuc(a1-4)]GlcNAc(b1-2)Man(a1-3)[Gal(b1-3)[Fuc(a1-4)]GlcNAc(b1-2)Man(a1-6)]Man(b1-4)GlcNAc(b1-4)[Fuc(a1-6)]GlcNAc
# Procedure, shortened: as §1
# [16] = biological target: Gal(b1-3)[Fuc(a1-4)]GlcNAc(b1-3)Gal(b1-3)[Fuc(a1-4)]GlcNAc
# Procedure, shortened: as §1
# [17] = biological target: Gal(b1-3)[Fuc(a1-4)]GlcNAc(b1-3)Gal(b1-4)GlcNAc
# Procedure, shortened: as §1
# [18] = biological target: Gal(b1-3)[Fuc(a1-4)]GlcNAc(b1-3)Gal(b1-4)[Fuc(a1-3)]GlcNAc
# Procedure, shortened: as §1
# [19] = biological target: Gal(b1-3)[Fuc(a1-4)]GlcNAc(b1-6)GalNAc
# Procedure, shortened: as §1
# [20] = biological target: Gal(b1-3)[GlcNAc(b1-6)]GalNAc
# Procedure, shortened: as §1
# [21] = biological target: Gal(b1-3)[Neu5Ac(a2-6)]GalNAc
# Procedure, shortened: as §1
# [22] = biological target: Gal(b1-3)[Neu5Ac(a2-6)]GlcNAc(b1-4)Gal(b1-4)Glc
# Procedure, shortened: as §1
# [23] = biological target: Gal(b1-3)[Neu5Ac(a2-6)]GlcNAc(b1-6)Gal(b1-4)Glc
# Procedure, shortened: as §1
# [24] = biological target: Gal(b1-3)[Neu5Ac(b2-6)]GalNAc
# Procedure, shortened: as §1
# [25] = biological target: Gal(b1-4)Gal
# Procedure, shortened: as §1
# [26] = biological target: Gal(b1-4)GalNAc(a1-3)[Fuc(a1-2)]Gal(b1-4)GlcNAc
# Procedure, shortened: as §1
# [27] = biological target: Gal(b1-4)GalNAc(b1-3)[Fuc(a1-2)]Gal(b1-4)GlcNAc
# Procedure, shortened: as §1
# [28] = biological target: Gal(b1-4)Glc
# Procedure, shortened: as §1
# [29] = biological target: Gal(b1-4)Glc6S
# Procedure, shortened: as §1
# [30] = biological target: Gal(b1-4)GlcNAc
# Procedure, shortened: as §1
# [31] = biological target: Gal(b1-4)GlcNAc(a1-6)Gal(b1-4)GlcNAc
# Procedure, shortened: as §1
# [32] = biological target: Gal(b1-4)GlcNAc(b1-2)Man
# Procedure, shortened: as §1
# [33] = biological target: Gal(b1-4)GlcNAc(b1-2)Man(a1-3)Man(b1-4)GlcNAc(b1-4)GlcNAc
# Procedure, shortened: as §1
# [34] = biological target: Gal(b1-4)GlcNAc(b1-2)Man(a1-3)[Gal(b1-4)GlcNAc(b1-2)Man(a1-6)]Man(b1-4)GlcNAc(b1-4)GlcNAc
# Procedure, shortened: as §1
# [35] = biological target: Gal(b1-4)GlcNAc(b1-2)Man(a1-3)[Gal(b1-4)GlcNAc(b1-2)Man(a1-6)]Man(b1-4)GlcNAc(b1-4)[Fuc(a1-6)]GlcNAc
# Procedure, shortened: as §1
# [36] = biological target: Gal(b1-4)GlcNAc(b1-2)Man(a1-3)[Gal(b1-4)GlcNAc(b1-2)Man(a1-6)][Gal(b1-4)GlcNAc(b1-4)]Man(b1-4)GlcNAc(b1-4)[Fuc(a1-6)]GlcNAc
# Procedure, shortened: as §1
# [37] = biological target: Gal(b1-4)GlcNAc(b1-2)Man(a1-3)[Gal(b1-4)GlcNAc(b1-2)Man(a1-6)][GlcNAc(b1-4)]Man(b1-4)GlcNAc(b1-4)[Fuc(a1-6)]GlcNAc
# Procedure, shortened: as §1
# [38] = biological target: Gal(b1-4)GlcNAc(b1-2)Man(a1-3)[Gal(b1-4)GlcNAc(b1-2)][GlcNAc(b1-4)]Man(b1-4)GlcNAc(b1-4)GlcNAc
# Procedure, shortened: as §1
# [39] = biological target: Gal(b1-4)GlcNAc(b1-2)Man(a1-3)[GlcNAc(b1-2)Man(a1-6)]Man(b1-4)GlcNAc(b1-4)GlcNAc
# Procedure, shortened: as §1
# [40] = biological target: Gal(b1-4)GlcNAc(b1-2)Man(a1-3)[GlcNAc(b1-4)][Gal(b1-4)GlcNAc(b1-2)Man(a1-6)]Man(b1-4)GlcNAc(b1-4)GlcNAc
# Procedure, shortened: as §1
# [41] = biological target: Gal(b1-4)GlcNAc(b1-2)Man(a1-3)[Man(a1-6)]Man(b1-4)GlcNAc(b1-4)GlcNAc
# Procedure, shortened: as §1
# [42] = biological target: Gal(b1-4)GlcNAc(b1-2)Man(a1-6)Man(b1-4)GlcNAc(b1-4)GlcNAc
# Procedure, shortened: as §1
# [43] = biological target: Gal(b1-4)GlcNAc(b1-2)Man(a1-6)[GlcNAc(b1-2)Man(a1-3)]Man(b1-4)GlcNAc(b1-4)GlcNAc
# Procedure, shortened: as §1
# [44] = biological target: Gal(b1-4)GlcNAc(b1-2)Man(a1-6)[Man(a1-3)]Man(b1-4)GlcNAc(b1-4)GlcNAc
# Procedure, shortened: as §1
# [45] = biological target: Gal(b1-4)GlcNAc(b1-2)[Gal(b1-4)GlcNAc(b1-4)]Man(a1-3)[Gal(b1-4)GlcNAc(b1-2)Man(a1-6)]Man(b1-4)GlcNAc(b1-4)GlcNAc
# Procedure, shortened: as §1
# [46] = biological target: Gal(b1-4)GlcNAc(b1-2)[Gal(b1-4)GlcNAc(b1-4)]Man(a1-3)[Gal(b1-4)GlcNAc(b1-2)[Gal(b1-4)GlcNAc(b1-6)]Man(a1-6)]Man(b1-4)GlcNAc(b1-4)GlcNAc
# Procedure, shortened: as §1
# [47] = biological target: Gal(b1-4)GlcNAc(b1-2)[Gal(b1-4)GlcNAc(b1-4)]Man(a1-3)[GlcNAc(b1-4)][Gal(b1-4)GlcNAc(b1-2)Man(a1-6)]Man(b1-4)GlcNAc(b1-4)GlcNAc
# Procedure, shortened: as §1
# [48] = biological target: Gal(b1-4)GlcNAc(b1-2)[Gal(b1-4)GlcNAc(b1-4)]Man(a1-3)[GlcNAc(b1-4)][Gal(b1-4)GlcNAc(b1-2)[Gal(b1-4)GlcNAc(b1-6)]Man(a1-6)]Man(b1-4)GlcNAc(b1-4)GlcNAc
# Procedure, shortened: as §1
# [49] = biological target: Gal(b1-4)GlcNAc(b1-2)[Gal(b1-4)GlcNAc(b1-6)]Man(a1-6)[Gal(b1-4)GlcNAc(b1-2)Man(a1-3)]Man(b1-4)GlcNAc(b1-4)GlcNAc
# Procedure, shortened: as §1
# [50] = biological target: Gal(b1-4)GlcNAc(b1-2)[Gal(b1-4)GlcNAc(b1-6)]Man(a1-6)[Gal(b1-4)GlcNAc(b1-2)Man(a1-3)]Man(b1-4)GlcNAc(b1-4)[Fuc(a1-6)]GlcNAc
# Procedure, shortened: as §1
# [51] = biological target: Gal(b1-4)GlcNAc(b1-2)[Gal(b1-4)GlcNAc(b1-6)]Man(a1-6)[GlcNAc(b1-4)][Gal(b1-4)GlcNAc(b1-2)Man(a1-3)]Man(b1-4)GlcNAc(b1-4)GlcNAc
# Procedure, shortened: as §1
# [52] = biological target: Gal(b1-4)GlcNAc(b1-2)[Gal(b1-4)GlcNAc(b1-6)]Man(a1-6)[GlcNAc(b1-4)][Gal(b1-4)GlcNAc(b1-2)[Gal(b1-4)GlcNAc(b1-4)]Man(a1-3)]Man(b1-4)GlcNAc(b1-4)[Fuc(a1-6)]GlcNAc
# Procedure, shortened: as §1
binder,measurement,setting,value
KILRGVCKKIMRTFLRRISKDILTGKK [NK2 (Sus scrofa)],glycan array binding signal (z-score),[1],-2.72
same,glycan array binding signal (z-score),[2],-0.369
same,glycan array binding signal (z-score),[3],0.747
same,glycan array binding signal (z-score),[4],-0.037
same,glycan array binding signal (z-score),[5],0.446
same,glycan array binding signal (z-score),[6],-0.036
same,glycan array binding signal (z-score),[7],-0.33
same,glycan array binding signal (z-score),[8],-0.099
same,glycan array binding signal (z-score),[9],-1.01
same,glycan array binding signal (z-score),[10],0.758
same,glycan array binding signal (z-score),[11],1.65
same,glycan array binding signal (z-score),[12],-0.634
same,glycan array binding signal (z-score),[13],0.753
same,glycan array binding signal (z-score),[14],-0.904
same,glycan array binding signal (z-score),[15],-0.004
same,glycan array binding signal (z-score),[16],-0.659
same,glycan array binding signal (z-score),[17],-0.552
same,glycan array binding signal (z-score),[18],-1
same,glycan array binding signal (z-score),[19],-1.29
same,glycan array binding signal (z-score),[20],-0.304
same,glycan array binding signal (z-score),[21],0.096
same,glycan array binding signal (z-score),[22],0.022
same,glycan array binding signal (z-score),[23],-0.316
same,glycan array binding signal (z-score),[24],-0.591
same,glycan array binding signal (z-score),[25],-0.503
same,glycan array binding signal (z-score),[26],-0.65
same,glycan array binding signal (z-score),[27],-0.97
same,glycan array binding signal (z-score),[28],-0.036
same,glycan array binding signal (z-score),[29],0.258
same,glycan array binding signal (z-score),[30],-0.442
same,glycan array binding signal (z-score),[31],-0.977
same,glycan array binding signal (z-score),[32],-0.61
same,glycan array binding signal (z-score),[33],0.721
same,glycan array binding signal (z-score),[34],-0.109
same,glycan array binding signal (z-score),[35],0.056
same,glycan array binding signal (z-score),[36],0.368
same,glycan array binding signal (z-score),[37],-0.408
same,glycan array binding signal (z-score),[38],-0.289
same,glycan array binding signal (z-score),[39],-0.812
same,glycan array binding signal (z-score),[40],0.481
same,glycan array binding signal (z-score),[41],0.68
same,glycan array binding signal (z-score),[42],-0.229
same,glycan array binding signal (z-score),[43],-0.72
same,glycan array binding signal (z-score),[44],-0.399
same,glycan array binding signal (z-score),[45],-0.148
same,glycan array binding signal (z-score),[46],-0.454
same,glycan array binding signal (z-score),[47],-0.023
same,glycan array binding signal (z-score),[48],0.574
same,glycan array binding signal (z-score),[49],0.297
same,glycan array binding signal (z-score),[50],0.274
same,glycan array binding signal (z-score),[51],-0.694
same,glycan array binding signal (z-score),[52],0.637

# 2 records drawn at random from those above:
binder,measurement,setting,value
KILRGVCKKIMRTFLRRISKDILTGKK [NK2 (Sus scrofa)],glycan array binding signal (z-score),[45],-0.148
same,glycan array binding signal (z-score),[51],-0.694
